In the supplement of paper PMC10849652:
The list shows a part of the results.

Sequences of proteins named here, by UniProt entry; tags and fusion partners are left off. A change or cut given only in a name is not applied to a line headed by its entry.
UniProt Q99714: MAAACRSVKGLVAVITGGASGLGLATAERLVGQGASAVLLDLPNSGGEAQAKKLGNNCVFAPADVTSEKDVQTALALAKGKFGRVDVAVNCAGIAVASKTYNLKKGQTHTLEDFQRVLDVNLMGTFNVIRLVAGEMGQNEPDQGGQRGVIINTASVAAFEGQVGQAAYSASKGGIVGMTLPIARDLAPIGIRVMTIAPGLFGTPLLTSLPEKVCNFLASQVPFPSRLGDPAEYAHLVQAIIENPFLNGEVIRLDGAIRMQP
UniProt P31937: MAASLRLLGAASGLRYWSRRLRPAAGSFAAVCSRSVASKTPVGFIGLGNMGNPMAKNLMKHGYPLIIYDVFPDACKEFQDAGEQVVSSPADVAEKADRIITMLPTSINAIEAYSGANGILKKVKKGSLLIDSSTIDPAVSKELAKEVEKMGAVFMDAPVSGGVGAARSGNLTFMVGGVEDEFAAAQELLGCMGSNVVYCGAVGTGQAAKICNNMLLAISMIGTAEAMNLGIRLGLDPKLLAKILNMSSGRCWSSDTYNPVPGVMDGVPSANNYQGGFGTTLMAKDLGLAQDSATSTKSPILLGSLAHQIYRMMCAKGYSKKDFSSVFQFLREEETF
UniProt Q92902: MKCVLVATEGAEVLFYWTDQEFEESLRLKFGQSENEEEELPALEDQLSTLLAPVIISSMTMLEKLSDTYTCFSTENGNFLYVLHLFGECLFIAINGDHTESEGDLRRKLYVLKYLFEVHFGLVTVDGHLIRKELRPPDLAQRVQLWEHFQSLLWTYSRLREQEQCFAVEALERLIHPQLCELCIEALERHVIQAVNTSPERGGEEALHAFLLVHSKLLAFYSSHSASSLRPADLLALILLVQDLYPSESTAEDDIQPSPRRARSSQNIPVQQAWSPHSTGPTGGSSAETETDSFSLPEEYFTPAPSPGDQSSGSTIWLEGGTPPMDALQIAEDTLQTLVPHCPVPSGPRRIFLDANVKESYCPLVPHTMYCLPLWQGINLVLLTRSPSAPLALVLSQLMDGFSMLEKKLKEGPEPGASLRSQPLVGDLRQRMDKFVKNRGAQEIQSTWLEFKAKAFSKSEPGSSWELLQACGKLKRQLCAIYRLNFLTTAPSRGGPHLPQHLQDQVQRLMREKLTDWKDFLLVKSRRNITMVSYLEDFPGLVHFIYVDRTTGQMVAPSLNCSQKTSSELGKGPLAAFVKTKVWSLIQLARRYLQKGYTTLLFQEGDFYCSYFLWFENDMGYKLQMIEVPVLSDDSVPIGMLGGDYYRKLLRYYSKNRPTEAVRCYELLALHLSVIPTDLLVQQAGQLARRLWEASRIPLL
UniProt O14964, whole entry, looked up: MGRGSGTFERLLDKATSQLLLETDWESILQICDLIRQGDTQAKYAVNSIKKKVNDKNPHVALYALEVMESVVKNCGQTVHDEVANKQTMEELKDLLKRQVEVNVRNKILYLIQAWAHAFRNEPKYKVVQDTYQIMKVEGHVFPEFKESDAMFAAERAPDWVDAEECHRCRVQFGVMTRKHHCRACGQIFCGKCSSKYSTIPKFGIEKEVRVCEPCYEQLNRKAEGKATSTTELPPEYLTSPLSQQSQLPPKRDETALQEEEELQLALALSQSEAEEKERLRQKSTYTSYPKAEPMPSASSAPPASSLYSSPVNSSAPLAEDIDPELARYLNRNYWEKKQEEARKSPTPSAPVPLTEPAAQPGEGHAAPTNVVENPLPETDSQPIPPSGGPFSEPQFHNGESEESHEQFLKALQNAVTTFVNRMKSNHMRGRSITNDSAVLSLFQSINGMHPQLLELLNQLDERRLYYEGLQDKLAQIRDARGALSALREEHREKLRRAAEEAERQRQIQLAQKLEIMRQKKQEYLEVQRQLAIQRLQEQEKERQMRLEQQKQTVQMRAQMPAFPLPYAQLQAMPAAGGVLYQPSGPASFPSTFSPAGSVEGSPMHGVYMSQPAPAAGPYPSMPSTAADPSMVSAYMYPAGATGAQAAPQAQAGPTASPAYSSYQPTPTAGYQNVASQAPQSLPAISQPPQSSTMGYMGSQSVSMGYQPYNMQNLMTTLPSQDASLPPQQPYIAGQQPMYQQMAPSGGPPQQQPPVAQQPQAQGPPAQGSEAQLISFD
UniProt O75330: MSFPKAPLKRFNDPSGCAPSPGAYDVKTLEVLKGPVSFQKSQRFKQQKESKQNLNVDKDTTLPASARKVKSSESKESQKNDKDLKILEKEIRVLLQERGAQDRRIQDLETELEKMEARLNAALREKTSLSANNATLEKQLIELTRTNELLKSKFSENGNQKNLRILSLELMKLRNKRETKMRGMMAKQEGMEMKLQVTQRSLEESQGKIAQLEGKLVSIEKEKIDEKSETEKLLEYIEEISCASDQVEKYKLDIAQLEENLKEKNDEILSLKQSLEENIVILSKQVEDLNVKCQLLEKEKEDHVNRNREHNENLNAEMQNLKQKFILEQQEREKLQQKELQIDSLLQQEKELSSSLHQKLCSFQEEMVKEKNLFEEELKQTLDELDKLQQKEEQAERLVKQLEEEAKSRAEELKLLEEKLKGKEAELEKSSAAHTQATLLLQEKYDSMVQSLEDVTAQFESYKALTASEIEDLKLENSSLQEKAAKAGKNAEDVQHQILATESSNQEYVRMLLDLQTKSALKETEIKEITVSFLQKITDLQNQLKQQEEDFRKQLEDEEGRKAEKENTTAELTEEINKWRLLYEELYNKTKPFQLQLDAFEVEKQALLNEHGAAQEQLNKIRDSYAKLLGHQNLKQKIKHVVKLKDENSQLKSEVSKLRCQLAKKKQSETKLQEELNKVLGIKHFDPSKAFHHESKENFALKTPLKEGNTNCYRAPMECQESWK
UniProt P07686: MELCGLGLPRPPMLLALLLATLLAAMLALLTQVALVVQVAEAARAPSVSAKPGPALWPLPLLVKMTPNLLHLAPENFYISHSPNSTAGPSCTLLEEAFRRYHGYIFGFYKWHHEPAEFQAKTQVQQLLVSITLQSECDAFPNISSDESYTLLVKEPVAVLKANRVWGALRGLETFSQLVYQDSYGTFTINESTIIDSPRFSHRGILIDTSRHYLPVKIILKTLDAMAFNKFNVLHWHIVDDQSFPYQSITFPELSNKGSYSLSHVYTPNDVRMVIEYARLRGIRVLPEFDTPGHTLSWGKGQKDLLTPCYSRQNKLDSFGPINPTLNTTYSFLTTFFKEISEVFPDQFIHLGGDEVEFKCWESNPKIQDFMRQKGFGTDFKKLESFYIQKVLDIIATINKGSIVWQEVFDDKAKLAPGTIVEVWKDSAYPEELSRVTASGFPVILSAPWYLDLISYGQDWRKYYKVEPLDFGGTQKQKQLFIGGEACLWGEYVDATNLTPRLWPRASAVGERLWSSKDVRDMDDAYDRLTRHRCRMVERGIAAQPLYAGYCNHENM
UniProt Q9NRV9: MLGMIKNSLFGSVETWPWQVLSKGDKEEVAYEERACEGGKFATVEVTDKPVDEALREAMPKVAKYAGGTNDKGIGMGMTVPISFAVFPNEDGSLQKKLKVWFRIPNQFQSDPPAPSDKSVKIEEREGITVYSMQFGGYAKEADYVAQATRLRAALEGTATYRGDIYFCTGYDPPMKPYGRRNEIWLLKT
UniProt P08397: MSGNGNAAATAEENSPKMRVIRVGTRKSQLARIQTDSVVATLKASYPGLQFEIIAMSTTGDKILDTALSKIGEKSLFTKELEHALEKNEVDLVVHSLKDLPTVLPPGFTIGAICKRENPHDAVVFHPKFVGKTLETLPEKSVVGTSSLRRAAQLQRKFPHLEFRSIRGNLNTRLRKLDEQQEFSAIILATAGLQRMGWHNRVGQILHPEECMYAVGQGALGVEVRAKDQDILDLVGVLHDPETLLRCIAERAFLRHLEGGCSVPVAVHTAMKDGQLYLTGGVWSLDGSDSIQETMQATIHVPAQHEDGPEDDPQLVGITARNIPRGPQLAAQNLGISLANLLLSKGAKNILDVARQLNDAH
UniProt O75146: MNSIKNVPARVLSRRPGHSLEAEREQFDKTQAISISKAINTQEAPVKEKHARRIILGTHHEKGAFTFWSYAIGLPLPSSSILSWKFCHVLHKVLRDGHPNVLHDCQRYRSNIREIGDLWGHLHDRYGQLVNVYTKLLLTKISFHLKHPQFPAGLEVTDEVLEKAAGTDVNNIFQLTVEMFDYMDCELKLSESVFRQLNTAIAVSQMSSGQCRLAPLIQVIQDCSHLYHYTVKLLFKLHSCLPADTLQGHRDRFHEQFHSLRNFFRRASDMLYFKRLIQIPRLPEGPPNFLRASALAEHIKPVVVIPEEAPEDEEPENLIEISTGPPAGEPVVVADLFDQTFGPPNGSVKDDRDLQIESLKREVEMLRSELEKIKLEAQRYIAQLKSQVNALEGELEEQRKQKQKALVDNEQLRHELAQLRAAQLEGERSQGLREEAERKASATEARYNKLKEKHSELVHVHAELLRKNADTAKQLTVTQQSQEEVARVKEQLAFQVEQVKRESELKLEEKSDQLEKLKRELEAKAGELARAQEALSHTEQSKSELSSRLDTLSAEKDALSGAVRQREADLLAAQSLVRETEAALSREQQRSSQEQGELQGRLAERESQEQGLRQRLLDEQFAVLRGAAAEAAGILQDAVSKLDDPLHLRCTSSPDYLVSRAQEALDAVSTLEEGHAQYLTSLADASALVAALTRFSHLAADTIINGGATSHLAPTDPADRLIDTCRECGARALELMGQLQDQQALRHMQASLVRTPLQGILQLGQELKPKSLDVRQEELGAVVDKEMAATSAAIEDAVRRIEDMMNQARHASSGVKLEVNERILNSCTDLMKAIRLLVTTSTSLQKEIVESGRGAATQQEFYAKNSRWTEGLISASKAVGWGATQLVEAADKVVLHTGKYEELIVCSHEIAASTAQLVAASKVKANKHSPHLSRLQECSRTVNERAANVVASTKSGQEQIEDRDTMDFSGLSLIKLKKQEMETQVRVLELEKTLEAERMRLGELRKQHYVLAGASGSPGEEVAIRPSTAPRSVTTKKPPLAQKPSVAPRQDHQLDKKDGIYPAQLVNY
UniProt P09429: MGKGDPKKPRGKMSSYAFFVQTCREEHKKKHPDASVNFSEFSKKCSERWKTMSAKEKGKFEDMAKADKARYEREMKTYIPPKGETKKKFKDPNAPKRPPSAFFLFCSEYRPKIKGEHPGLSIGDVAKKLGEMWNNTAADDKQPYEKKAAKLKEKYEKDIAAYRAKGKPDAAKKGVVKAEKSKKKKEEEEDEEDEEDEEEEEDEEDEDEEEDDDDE
UniProt Q8IWL3: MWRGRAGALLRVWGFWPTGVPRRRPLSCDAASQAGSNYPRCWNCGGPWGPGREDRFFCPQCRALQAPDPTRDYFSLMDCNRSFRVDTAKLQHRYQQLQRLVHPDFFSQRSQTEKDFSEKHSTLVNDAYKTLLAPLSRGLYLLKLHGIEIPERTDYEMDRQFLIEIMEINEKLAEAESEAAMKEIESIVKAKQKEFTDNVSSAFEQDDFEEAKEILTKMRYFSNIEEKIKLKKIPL
UniProt P51659: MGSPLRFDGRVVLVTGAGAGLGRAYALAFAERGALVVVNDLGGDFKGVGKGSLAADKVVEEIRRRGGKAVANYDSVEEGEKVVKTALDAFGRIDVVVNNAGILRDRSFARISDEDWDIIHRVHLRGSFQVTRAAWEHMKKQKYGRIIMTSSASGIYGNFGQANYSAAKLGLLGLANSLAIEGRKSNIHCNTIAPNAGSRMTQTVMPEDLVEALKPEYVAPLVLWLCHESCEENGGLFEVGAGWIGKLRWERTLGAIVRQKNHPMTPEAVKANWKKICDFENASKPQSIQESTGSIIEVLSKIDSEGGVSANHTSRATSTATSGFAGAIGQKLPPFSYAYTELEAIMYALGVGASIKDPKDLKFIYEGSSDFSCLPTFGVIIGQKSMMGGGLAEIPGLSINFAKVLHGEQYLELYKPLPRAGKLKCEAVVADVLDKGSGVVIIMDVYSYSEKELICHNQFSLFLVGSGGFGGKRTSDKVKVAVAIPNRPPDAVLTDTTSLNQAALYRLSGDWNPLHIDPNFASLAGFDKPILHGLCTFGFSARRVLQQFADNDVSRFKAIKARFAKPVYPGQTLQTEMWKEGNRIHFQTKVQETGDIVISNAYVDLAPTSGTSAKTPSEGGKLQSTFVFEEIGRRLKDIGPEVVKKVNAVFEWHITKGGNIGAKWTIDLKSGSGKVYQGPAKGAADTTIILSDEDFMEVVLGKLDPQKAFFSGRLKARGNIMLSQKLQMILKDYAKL
UniProt Q6NVY1: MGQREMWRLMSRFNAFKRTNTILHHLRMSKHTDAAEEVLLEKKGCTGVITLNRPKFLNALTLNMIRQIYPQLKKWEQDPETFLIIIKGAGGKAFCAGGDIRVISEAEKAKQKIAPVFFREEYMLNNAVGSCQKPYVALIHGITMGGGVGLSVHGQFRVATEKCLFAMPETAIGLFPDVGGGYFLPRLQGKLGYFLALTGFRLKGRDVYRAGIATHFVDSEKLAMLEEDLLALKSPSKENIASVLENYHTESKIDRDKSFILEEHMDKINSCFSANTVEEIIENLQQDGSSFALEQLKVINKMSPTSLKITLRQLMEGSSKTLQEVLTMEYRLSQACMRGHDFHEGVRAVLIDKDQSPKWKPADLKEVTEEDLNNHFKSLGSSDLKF

How the values were obtained:
Assay in all cases: log2 fold change, soluble protein after heating vs DMSO (PISA); higher = thermal stabilisation; K562 lysate, 10 uM; active = over 0.2 and 3.5 SD of the protein, either way, in both replicates (recomputed)
[1] = compound: NCC(=O)Nc1ccc(-n2nc(C(F)(F)F)cc2-c2ccc3c(ccc4ccccc43)c2)cc1
Method in brief: (§1)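 Log-two fold change in thermal stability relative to solvent controls is reported from duplicates. For each sample, crude K562 extract from dounce-homogenised pellets in PBS pH 7.4 with 1 mM MgCl2, at 1 mg/mL protein, was treated with 10 μM compound for 30 min. Aliquots heated for 3 min across 48°C-58°C were pooled, brought to 0.5% NP-40 at 4°C and cleared at 21,000xg for 90 min. The supernatant was quantified by TMTpro 16plex LC-MS/MS with channel sums equalised.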

vorinostat = compound: O=C(CCCCCCC(=O)Nc1ccccc1)NO [vorinostat]
Method in brief: as §1

silmitasertib = compound: O=C(O)c1ccc2c(c1)nc(Nc1cccc(Cl)c1)c1ccncc12 [silmitasertib]
Method in brief: as §1

[2] = compound: O=C1NC(=O)C(c2cnc3ccccn23)=C1c1cn2c3c(cc(F)cc13)CN(C(=O)N1CCCCC1)CC2
Method in brief: as §1

entospletinib = compound: c1cn2cc(-c3ccc4cn[nH]c4c3)nc(Nc3ccc(N4CCOCC4)cc3)c2n1 [entospletinib]
Method in brief: as §1

| Target | log2 fold change [1] | log2 fold change (vorinostat) | log2 fold change (silmitasertib) | log2 fold change [2] | log2 fold change (entospletinib) |
| --- | --- | --- | --- | --- | --- |
| HNRNPU (UniProt Q00839) | inactive: -0.035 | inactive: -0.087 | inactive: 0.021 | inactive: -0.037 | inactive: 0.019 |
| HSDL2 (UniProt Q6YN16) | inactive: -0.004 | inactive: 0.065 | inactive: -0.014 | inactive: 0.026 | inactive: 0.012 |
| HIF1AN (UniProt Q9NWT6) | inactive: 0.035 | inactive: 0.039 | inactive: 0.006 | inactive: -0.149 | inactive: -0.001 |
| HM13 isoform 2 (UniProt Q8TCT9) | inactive: -0.026 | inactive: 0.192 | inactive: 0 | inactive: -0.02 | inactive: -0.02 |
| HSD17B10 (UniProt Q99714) | inactive: 0.04 | active: -0.826 | inactive: -0.011 | inactive: -0.025 | inactive: -0.004 |
| HECW2 (UniProt Q9P2P5) | inactive: -0.018 | inactive: -0.058 | inactive: 0.011 | inactive: -0.004 | inactive: -0.09 |
| HLCS (UniProt P50747) | inactive: -0.048 | inactive: -0.054 | inactive: -0.012 | inactive: 0.004 | inactive: 0.009 |
| HNRNPK isoform 3 (UniProt P61978) | inactive: 0.051 | inactive: 0.112 | inactive: -0.011 | inactive: 0.024 | inactive: 0.021 |
| HIKESHI (UniProt Q53FT3) | inactive: -0.172 | inactive: 0.12 | inactive: -0.023 | inactive: 0.006 | inactive: 0.059 |
| HIBADH (UniProt P31937) | inactive: 0.059 | inactive: 0.125 | inactive: -0.04 | inactive: 0.008 | inactive: -0.011 |
| HINT2 (UniProt Q9BX68) | inactive: -0.089 | inactive: 0.142 | inactive: 0.053 | inactive: 0.132 | inactive: 0.045 |
| HPS1 (UniProt Q92902) | inactive: -0.054 | inactive: -0.142 | inactive: 0.092 | inactive: 0.056 | inactive: -0.092 |
| HS1BP3 (UniProt Q53T59) | inactive: 0.03 | inactive: 0.139 | inactive: -0.038 | inactive: -0.027 | inactive: -0.033 |
| HNRNPD isoform 3 (UniProt Q14103) | inactive: 0.074 | inactive: 0.078 | inactive: 0.005 | inactive: 0.09 | inactive: 0 |
| HIST2H2AA3 (UniProt Q6FI13) | inactive: -0.056 | inactive: 0.12 | inactive: -0.073 | inactive: 0.068 | inactive: -0.106 |
| HK1 isoform 2 (UniProt P19367) | inactive: 0.012 | active: -0.264 | inactive: 0.028 | inactive: -0.002 | inactive: 0.011 |
| HNRNPH3 (UniProt P31942) | inactive: -0.04 | inactive: -0.096 | inactive: 0.021 | inactive: -0.085 | inactive: 0.013 |
| HSPA13 (UniProt P48723) | inactive: -0.019 | inactive: 0.12 | inactive: 0.037 | inactive: -0.018 | inactive: 0.014 |
| HMOX2 (UniProt P30519) | inactive: 0.014 | inactive: 0.07 | inactive: -0.003 | inactive: -0.021 | inactive: -0.018 |
| HIST2H2BF isoform 2 (UniProt Q5QNW6) | inactive: 0.012 | inactive: 0.098 | inactive: 0 | inactive: 0.009 | inactive: -0.012 |
| HMGN5 (UniProt P82970) | inactive: -0.014 | inactive: 0.14 | inactive: 0.002 | inactive: -0.005 | inactive: 0.002 |
| HSP90B1 (UniProt P14625) | inactive: 0.005 | inactive: 0.135 | inactive: 0 | inactive: 0.008 | inactive: 0.003 |
| HLTF (UniProt Q14527) | inactive: 0.046 | active: -0.246 | inactive: 0.101 | inactive: -0.101 | inactive: 0.017 |
| HRC (UniProt P23327) | inactive: 0.013 | inactive: 0.174 | inactive: -0.015 | inactive: 0.017 | inactive: 0.046 |
| HNRNPA1 (UniProt H0YH80) | inactive: 0.004 | inactive: 0.115 | inactive: 0.01 | inactive: -0.031 | inactive: -0.004 |
| HGS (UniProt O14964) | inactive: 0 | inactive: 0.049 | inactive: -0.006 | inactive: -0.006 | inactive: -0.001 |
| HINT3 (UniProt Q9NQE9) | inactive: -0.019 | inactive: -0.109 | inactive: -0.033 | inactive: -0.046 | inactive: -0.037 |

| Target | log2 fold change [1] | log2 fold change (vorinostat) | log2 fold change (silmitasertib) | log2 fold change [2] | log2 fold change (entospletinib) |
| --- | --- | --- | --- | --- | --- |
| HSPA4L (UniProt O95757) | inactive: 0.002 | inactive: -0.038 | inactive: -0.002 | inactive: -0.018 | inactive: 0.01 |
| HIST2H2BC (UniProt Q6DN03) | inactive: 0.018 | inactive: 0.133 | inactive: -0.098 | inactive: -0.019 | inactive: -0.062 |
| HECTD3 (UniProt Q5T447) | inactive: -0.015 | active: -0.253 | inactive: 0.109 | inactive: -0.02 | inactive: 0.022 |
| HERC1 (UniProt Q15751) | inactive: -0.006 | inactive: -0.192 | inactive: -0.001 | inactive: 0.006 | inactive: -0.004 |
| HPS3 (UniProt Q969F9) | inactive: -0.167 | inactive: -0.282 | inactive: 0.025 | inactive: 0.207 | inactive: -0.237 |
| HMMR isoform 3 (UniProt O75330) | inactive: 0.006 | inactive: -0.143 | inactive: 0.011 | inactive: -0.007 | inactive: 0.001 |
| HPRT1 (UniProt P00492) | inactive: -0.008 | inactive: 0.108 | inactive: 0.001 | inactive: -0.008 | inactive: -0.017 |
| HIRA (UniProt P54198) | inactive: 0.07 | inactive: -0.193 | inactive: 0.003 | inactive: -0.005 | inactive: 0.131 |
| HEXB (UniProt P07686) | inactive: 0.006 | inactive: 0.075 | inactive: 0.017 | inactive: -0.043 | inactive: 0 |
| HEBP1 (UniProt Q9NRV9) | inactive: -0.051 | inactive: 0.056 | inactive: 0.15 | inactive: -0.064 | inactive: 0.147 |
| HMBS (UniProt P08397) | inactive: -0.002 | inactive: 0.136 | inactive: -0.02 | inactive: 0.017 | inactive: 0.028 |
| HMGCS1 (UniProt Q01581) | inactive: 0.018 | active: 0.53 | inactive: 0.011 | inactive: 0.013 | inactive: -0.002 |
| HOMEZ isoform 3 (UniProt Q8IX15) | inactive: -0.116 | inactive: -0.056 | inactive: -0.033 | inactive: -0.013 | inactive: -0.099 |
| HSP90AB3P (UniProt Q58FF7) | inactive: 0.011 | inactive: 0.047 | inactive: 0.005 | inactive: -0.006 | inactive: -0.012 |
| HMG20B (UniProt Q9P0W2) | inactive: 0.122 | inactive: 0.128 | inactive: -0.071 | inactive: 0.026 | inactive: 0.015 |
| HSP90AB1 (UniProt P08238) | inactive: 0.013 | inactive: 0.119 | inactive: -0.016 | inactive: 0.009 | inactive: -0.006 |
| HIP1R (UniProt O75146) | inactive: 0 | inactive: -0.092 | inactive: -0.039 | inactive: 0.008 | inactive: -0.009 |
| HM13 (UniProt Q8TCT9) | inactive: 0.04 | inactive: 0.105 | inactive: 0.038 | inactive: 0.065 | inactive: 0.013 |
| HNRNPL (UniProt P14866) | inactive: 0.005 | active: -0.445 | inactive: 0.072 | inactive: 0.028 | inactive: 0.007 |
| HMGB1 (UniProt P09429) | inactive: -0.024 | inactive: 0.083 | inactive: 0.017 | inactive: 0.098 | inactive: -0.014 |
| HSCB (UniProt Q8IWL3) | inactive: 0.101 | inactive: 0.033 | inactive: 0.033 | inactive: -0.078 | inactive: 0.092 |
| HEXIM1 (UniProt O94992) | inactive: 0.004 | inactive: 0.096 | inactive: 0.031 | inactive: -0.063 | inactive: -0.001 |
| HELQ (UniProt Q8TDG4) | inactive: -0.003 | inactive: 0.001 | inactive: 0.076 | inactive: 0.017 | inactive: -0.103 |
| HERC4 (UniProt Q5GLZ8) | inactive: 0.003 | inactive: 0.012 | inactive: -0.012 | inactive: 0.002 | inactive: -0.009 |
| HSD17B4 (UniProt P51659) | inactive: 0.042 | inactive: 0.15 | inactive: -0.025 | inactive: -0.038 | inactive: 0.006 |
| HIBCH (UniProt Q6NVY1) | inactive: 0.005 | inactive: 0.108 | inactive: -0.017 | inactive: -0.003 | inactive: -0.007 |

Reformatted as labelled records: part of the list above
HEBP1 (UniProt Q9NRV9)
  log2 fold change [1]: inactive: -0.051; log2 fold change (vorinostat): inactive: 0.056; log2 fold change (silmitasertib): inactive: 0.15; log2 fold change [2]: inactive: -0.064; log2 fold change (entospletinib): inactive: 0.147
HOMEZ isoform 3 (UniProt Q8IX15)
  log2 fold change [1]: inactive: -0.116; log2 fold change (vorinostat): inactive: -0.056; log2 fold change (silmitasertib): inactive: -0.033; log2 fold change [2]: inactive: -0.013; log2 fold change (entospletinib): inactive: -0.099
HIBCH (UniProt Q6NVY1)
  log2 fold change [1]: inactive: 0.005; log2 fold change (vorinostat): inactive: 0.108; log2 fold change (silmitasertib): inactive: -0.017; log2 fold change [2]: inactive: -0.003; log2 fold change (entospletinib): inactive: -0.007
